In the supplement of paper PMC4604168 (melanoma cell lines):
Some of the results follow. Repeats are few or missing, and single values can be far off.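 The apoptosis fraction was the count of cleaved-PARP antibody-stained nuclei relative to all DNA-stained nuclei, imaged in 1,536-well plates. Screening doses were set so most cells survived, and baseline and induced cleaved-PARP levels vary greatly across cell lines.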

What was measured:
Assay in all cases: cleaved PARP positive nuclei fraction relative to DMSO control; melanoma cells; higher = more apoptosis
Settings in all cases: library dose: low library concentration; 72 h
[1] = system: MeWo
[2] = system: RPMI7951
[3] = system: RVH-421
[4] = system: SkMel28
[5] = system: SkMel30
[6] = system: SkMel5
[7] = system: UACC257
[8] = system: UACC62
[9] = system: WM115
[10] = system: WM1716
[11] = system: WM1745
[12] = system: WM3526
[13] = system: WM3619
[14] = system: WM451Lu

| SMILES | cleaved PARP positive nuclei fraction [1] | cleaved PARP positive nuclei fraction [2] | cleaved PARP positive nuclei fraction [3] | cleaved PARP positive nuclei fraction [4] | cleaved PARP positive nuclei fraction [5] | cleaved PARP positive nuclei fraction [6] | cleaved PARP positive nuclei fraction [7] | cleaved PARP positive nuclei fraction [8] | cleaved PARP positive nuclei fraction [9] | cleaved PARP positive nuclei fraction [10] | cleaved PARP positive nuclei fraction [11] | cleaved PARP positive nuclei fraction [12] | cleaved PARP positive nuclei fraction [13] | cleaved PARP positive nuclei fraction [14] |
| --- | --- | --- | --- | --- | --- | --- | --- | --- | --- | --- | --- | --- | --- | --- |
| C[C@]1(c2nc3c(C(N)=O)cccc3[nH]2)CCCN1 [Veliparib] + O=c1cc(-c2cccc3c2Sc2ccccc2S3)oc(N2CCOCC2)c1 [KU55933] (first compound 1.4 µM, partner dose 1 µM) | 95.5% | 74.9% | 91.1% | 125% | 334% | 116% | 46.2% | 145% | 84.6% | 135% | 103% | 85.9% | 82.2% | 81.1% |
| CO[C@@H]1[C@H](N(C)C(=O)c2ccccc2)C[C@H]2O[C@]1(C)n1c3ccccc3c3c4c(c5c6ccccc6n2c5c31)C(=O)NC4 [Midostaurin] + Oc1nc(-c2ccc(C(F)(F)F)cc2)nc2c1CSCC2 [XAV939] (first compound 0.08 µM, partner dose 2 µM) | 257% | 120% | 115% | 89% | 53.9% | 149% | 111% | 151% | 211% | 239% | 161% | 69.3% | 95.8% | 132% |
| COCC[n+]1c2c(n(Cc3cnccn3)c1C)C(=O)c1ccccc1C2=O + CN(C)S(=O)(=O)c1ccc2c(c1)/C(=C/c1cc3c([nH]1)CCCC3)C(=O)N2 [SU6656] (first compound 0.0004 µM, partner dose 0.4 µM) | 164% | 40% | 166% | 216% | 76.8% | 62.3% | 105% | 136% | 158% | 191% | 97.7% | 52.6% | 96.9% | 320% |
| CC(C)(C)c1cnc(CSc2cnc(NC(=O)C3CCNCC3)s2)o1 + COc1cc2ncnc(Nc3ccc(Oc4ccccc4)cc3)c2cc1OC [SrcI1] (first compound 0.01 µM, partner dose 2 µM) | 53% | 86.6% | 61.1% | 157% | 76.1% | 26% | 99.2% | 328% | 64.9% | 25% | 110% | 74.5% | 270% | 152% |
| Cc1ccc(NC(=O)c2cccc(N(C)C)c2)cc1NC(=O)c1ccc(O)cc1 + CC(C)(C)c1cnc(CSc2cnc(NC(=O)C3CCNCC3)s2)o1 [SNS-032] (first compound 2 µM, partner dose 0.01 µM) | 64.5% | 135% | 82.6% | 29.1% | 53.6% | 64.8% | 61.9% | 293% | 54.5% | 98.9% | 89.9% | 55% | 99.1% | 198% |
| NC(=O)Nc1cc(-c2cccc(F)c2)sc1C(=O)N[C@H]1CCCNC1 + O=C(Nc1cccc(Cl)c1)Nc1ncc(CCNc2ncnc3ccsc23)s1 [SNS314] (first compound 0.02 µM, partner dose 0.0008 µM) | 86.6% | 152% | 49.9% | 115% | 48.4% | 133% | 65% | 154% | 211% | 169% | 96.6% | 60.7% | 114% | 96.4% |
